Test results from PubChem BioAssay AID488837 (National Center for Advancing Translational Sciences (NCATS), 2010).
Hit rate of the full screen: of about 330,000 compounds, about 20 (0.006%) were called active. Inconclusive results, whose numbers are uncertain, are shown with a selection of clear calls. The call rests on the fitted dose curve; in most records, active means well fitted inhibition curve with a large enough effect; inconclusive means small, poorly fitted or top-dose-only effect, or effect the other way; inactive means flat fitted curve, though single readings scatter. Potencies beside an inconclusive call are fits to weak or partial responses and may not hold up.

Amino acid sequences for entries named in this document (tags omitted). A change or cut given only in a name is not applied to a line headed by its entry.
UniProt O00167: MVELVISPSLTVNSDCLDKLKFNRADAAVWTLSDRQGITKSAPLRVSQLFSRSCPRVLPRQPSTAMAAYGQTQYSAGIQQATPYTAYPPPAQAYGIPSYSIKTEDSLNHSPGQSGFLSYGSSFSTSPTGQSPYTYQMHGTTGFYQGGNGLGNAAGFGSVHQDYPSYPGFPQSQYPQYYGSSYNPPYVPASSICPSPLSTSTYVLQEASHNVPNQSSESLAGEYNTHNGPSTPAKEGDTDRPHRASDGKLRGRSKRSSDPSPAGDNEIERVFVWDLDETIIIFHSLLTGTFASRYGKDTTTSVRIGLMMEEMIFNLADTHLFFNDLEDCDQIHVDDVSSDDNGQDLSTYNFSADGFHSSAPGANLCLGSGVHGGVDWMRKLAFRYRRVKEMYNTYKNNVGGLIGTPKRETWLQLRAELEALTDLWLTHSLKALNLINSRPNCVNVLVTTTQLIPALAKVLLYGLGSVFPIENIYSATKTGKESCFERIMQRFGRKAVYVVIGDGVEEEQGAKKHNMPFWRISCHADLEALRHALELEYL

Molecular target: Protein phosphatase EYA2 (Homo sapiens) (UniProt O00167)
Experiment: qHTS Assay for Inhibitors of the Phosphatase Activity of Eya2
Settings: recombinant Eya2, OMFP fluorescence dephosphorylation (OMFP is methylfluorescein phosphate); activity, negative = inhibition: at 76.9 µM (top of the series) unless noted
Procedure, shortened: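 Eya2 (0.2 uM) preincubated 10 min at ambient with compound, then OMFP substrate added at 50 uM; 10 min reaction in 50 mM HEPES pH 7.5, 50 mM NaCl, 5 uM MgCl2, 0.05% BSA, 1 mM DTT. Fluorescence read at Ex 485/Em 525 nm.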
On the % scale 0 is the no-effect control and ±100 the full control effect; potency means the concentration at half of the fitted maximal effect.

Row | SMILES | Potency | activity, negative = inhibition
1 | CCOC(=O)Cc1cc(=O)c2cc(C)ccc2[nH]1 | inconclusive: 100 µM [inhibitor, single point] | –
2 | CC(C)(C)CC(=O)NCCc1csc(-c2ccccc2)n1 | inconclusive: 17.8 µM [inhibitor, single point] | –
3 | COc1ccc(C(C)NCCC(c2ccc(OC(C)C)cc2)c2ccccc2OC)cc1 (configuration not stated) | inconclusive: 22.4 µM [inhibitor, single point] | –
4 | COc1ccc(C)cc1N(C(=O)c1ccc(C#N)cc1)C1=NC(C)(C)CS1 | inconclusive: 100 µM [inhibitor, single point] | –
5 | Cc1nn(C)c(C)c1/C=C/C(=O)c1ccc(Cl)cc1Cl | inconclusive: 112 µM [inhibitor, single point] | –
6 | Oc1oc(-c2ccccc2)nc1C=Nc1ccccc1 | inconclusive: 22.4 µM [inhibitor, single point] | –
7 | CCOC(=O)c1sc(NC(=S)NC(=O)c2ccco2)nc1C | – | inactive: -1.82%
8 | O=C(Nc1cccc(-c2nc3ccccc3[nH]2)c1)c1ccc(C(=O)Nc2cccc(-c3nc4ccccc4[nH]3)c2)cc1 | inconclusive: 282 µM [inhibitor, single point] | –
9 | C[C@H](CO)N1C[C@H](C)[C@H](CN(C)S(C)(=O)=O)Oc2c(cccc2N(C)C)C1=O | – | inactive: -33.3%
10 | O=C(NN=C1CCCC1)c1ccc(Cl)cc1 | – | inactive: -10.4%
11 | O=C(COC(=O)c1ccc(O)cc1)c1ccc(S(=O)(=O)N2CCCCC2)cc1 | – | inactive: -11.6%
12 | COc1ccc(CCNCC(=O)Nc2ccccc2C(F)(F)F)cc1 | – | inactive: 8.86%
13 | C[C@@H]1O[C@@H](OC[C@@H]2O[C@H](Oc3c(-c4ccc(O)cc4)oc4cc(O)cc(O)c4c3=O)[C@@H](O)[C@H](O)[C@H]2O)[C@H](O)[C@H](O)[C@H]1O | – | inactive: 16.1%
14 | Cc1nc(NCc2ccc3c(c2)OCO3)c2oc3ccccc3c2n1 | – | inactive: -7.65%
15 | COCCn1c(C)c(C)c(S(=O)(=O)c2ccccc2)c1N | inconclusive: 100 µM [inhibitor, single point] | –
16 | Cc1ccc(/C=C2/Sc3ccc(C(=O)N4CCN(C)CC4)cc3NC2=O)cc1 | inconclusive: 22.4 µM [inhibitor, single point] | –
17 | O=C(O)c1nn(-c2cccc(C(F)(F)F)c2)ccc1=O | inconclusive: 22.4 µM [inhibitor, single point] | –
18 | O=C(c1ccccc1)c1nn(-c2ccc(Cl)cc2)c(=O)cc1C(F)(F)F | – | inactive: -16%
19 | CCCCN1C(=O)N(c2nnc(C(C)(C)C)s2)C(O)C1c1ccc(C)cc1 (configuration not stated) | inconclusive: 447 µM [inhibitor, single point] | –
20 | COc1ccc(C(=O)O/N=C(\N)c2ccccc2)cc1 | inconclusive: 100 µM [inhibitor, single point] | –
21 | C#CCOCCOCCOCCNc1nc(N2CCN(C(=O)[C@H](CCC(=O)O)n3cc(C(N)CO)nn3)CC2)nc(N2CCN(C(=O)[C@H](CCC(=O)O)n3cc(C(N)CC(C)C)nn3)CC2)n1 (some centres not stated) | – | inactive: 1.74%

9 of the compounds above, tab-delimited:
Row	SMILES	Potency	activity, negative = inhibition
11	O=C(COC(=O)c1ccc(O)cc1)c1ccc(S(=O)(=O)N2CCCCC2)cc1	–	inactive: -11.6%
12	COc1ccc(CCNCC(=O)Nc2ccccc2C(F)(F)F)cc1	–	inactive: 8.86%
13	C[C@@H]1O[C@@H](OC[C@@H]2O[C@H](Oc3c(-c4ccc(O)cc4)oc4cc(O)cc(O)c4c3=O)[C@@H](O)[C@H](O)[C@H]2O)[C@H](O)[C@H](O)[C@H]1O	–	inactive: 16.1%
14	Cc1nc(NCc2ccc3c(c2)OCO3)c2oc3ccccc3c2n1	–	inactive: -7.65%
15	COCCn1c(C)c(C)c(S(=O)(=O)c2ccccc2)c1N	inconclusive: 100 µM [inhibitor, single point]	–
16	Cc1ccc(/C=C2/Sc3ccc(C(=O)N4CCN(C)CC4)cc3NC2=O)cc1	inconclusive: 22.4 µM [inhibitor, single point]	–
17	O=C(O)c1nn(-c2cccc(C(F)(F)F)c2)ccc1=O	inconclusive: 22.4 µM [inhibitor, single point]	–
18	O=C(c1ccccc1)c1nn(-c2ccc(Cl)cc2)c(=O)cc1C(F)(F)F	–	inactive: -16%
19	CCCCN1C(=O)N(c2nnc(C(C)(C)C)s2)C(O)C1c1ccc(C)cc1 (configuration not stated)	inconclusive: 447 µM [inhibitor, single point]	–

Later entries

Row | SMILES | Potency | activity, negative = inhibition
22 | CCOC(=O)NC(NC(=O)OCC)C(=O)c1ccccc1 | inconclusive: 100 µM [inhibitor, single point] | –
23 | Nc1c(C(=O)c2ccccc2)sc2nsc(SCCN3CCCC3)c12 | – | inconclusive: 40.4% [activator]
24 | O=S(=O)(NCCN1CCCC1)c1ccc(Cl)cc1 | inconclusive: 100 µM [inhibitor, single point] | –
25 | Cc1ccc(NC(=O)COc2ccc(Br)cn2)cc1 | inconclusive: 126 µM [inhibitor, partial curve] | –
26 | COc1cc(NC(=O)c2ccccc2Cl)ccc1NC(=O)c1cccs1 | inconclusive: 22.4 µM [inhibitor, single point] | –
27 | CCCCN(C(=O)c1ccc(N2CCCC2=O)cc1)c1c(N)n(CC(C)C)c(=O)[nH]c1=O | inconclusive: 89.1 µM [inhibitor, partial curve, poor fit] | –
28 | CC(=O)Nc1ccc(NC(=O)C(C)OC(=O)c2ccc3c(c2)OCCO3)cc1 (configuration not stated) | inconclusive: 112 µM [inhibitor, single point] | –
29 | CN(C)c1ccc(NC(=S)N2CCN(c3ncc(C(F)(F)F)cc3Cl)CC2)cc1 | inconclusive: 100 µM [inhibitor, single point] | –
30 | O=S(=O)(c1ccccc1)C1CON(Cc2ccccc2)C1c1ccccc1 (configuration not stated) | inconclusive: 39.8 µM [inhibitor, partial curve] | –
31 | CN1C2CCC1/C(=C/c1cccn1C)C(=O)/C2=C\c1cccn1C | inconclusive: 50.1 µM [activator, partial curve] | –
32 | CN(C)C(=O)c1ccc(-c2cc(C(F)(F)F)nn2C)s1 | inconclusive: 89.1 µM [inhibitor, single point] | –
33 | Cc1ccc(C(=O)O/N=C2\CCS(=O)(=O)c3sccc32)cc1 | inconclusive: 25.1 µM [inhibitor, partial curve, poor fit] | –
34 | O=C(NCCCN1CCCC1)c1cc(Sc2ccc(F)cc2)nc2ccccc12 | inconclusive: 89.1 µM [inhibitor, single point] | –
35 | FC(F)(F)c1ccccc1NC(=S)Nc1ccccc1 | – | inactive: 3.22%
36 | CN1CCc2c(n(CC(O)CN(CCO)CCO)c3ccccc23)C1=O (configuration not stated) | inconclusive: 89.1 µM [inhibitor, single point] | –
37 | Fc1ccc(N2CCN(c3nc(CN4CCOCC4)nc4scc(-c5ccccc5)c34)CC2)cc1 | inconclusive: 158 µM [inhibitor, single point] | –
38 | CCOC(=O)CNC(=O)C1Cc2ccccc2CN1S(=O)(=O)c1cccs1 (configuration not stated) | inconclusive: 17.8 µM [inhibitor, single point] | –
39 | Cc1ccc(N2C(=O)CS(=O)C(c3ccccc3)C2=O)cc1C (configuration not stated) | – | inactive: -2.29%
40 | Cn1nc(C(F)(F)F)c(-c2cccc(C(F)(F)F)c2)c1NC(=O)Nc1ccc(F)cc1 | inconclusive: 89.1 µM [inhibitor, single point] | –
41 | CCOc1ccc(CC(=O)NNC(=S)NC)cc1 | inconclusive: 22.4 µM [inhibitor, single point] | –
42 | O=C(Nc1cccc(Cl)c1)C1CCCN(C2=NS(=O)(=O)c3ccccc32)C1 (configuration not stated) | inconclusive: 22.4 µM [inhibitor, single point] | –
